Assay [1] has as its target 3xHA-tagged TRIM52 (full-length, WT) (human) (UniProt Q96A61). The assay can be described thus: co-IP.
Assay [2] addresses TwinStrep-tagged EGFP-TRIM52 (WT) (human) (UniProt Q96A61). As to the kind of experiment: co-IP.

Amino acid sequences for entries named in this document (tags omitted).
UniProt Q96A61: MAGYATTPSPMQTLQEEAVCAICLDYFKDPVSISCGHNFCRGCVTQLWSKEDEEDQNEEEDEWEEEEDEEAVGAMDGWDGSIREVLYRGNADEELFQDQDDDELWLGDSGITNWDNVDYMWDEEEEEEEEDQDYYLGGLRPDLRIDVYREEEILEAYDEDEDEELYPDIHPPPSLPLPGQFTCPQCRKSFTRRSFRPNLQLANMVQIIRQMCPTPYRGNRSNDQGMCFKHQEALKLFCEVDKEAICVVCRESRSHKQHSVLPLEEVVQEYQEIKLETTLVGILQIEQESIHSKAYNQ
UniProt Q7Z6Z7: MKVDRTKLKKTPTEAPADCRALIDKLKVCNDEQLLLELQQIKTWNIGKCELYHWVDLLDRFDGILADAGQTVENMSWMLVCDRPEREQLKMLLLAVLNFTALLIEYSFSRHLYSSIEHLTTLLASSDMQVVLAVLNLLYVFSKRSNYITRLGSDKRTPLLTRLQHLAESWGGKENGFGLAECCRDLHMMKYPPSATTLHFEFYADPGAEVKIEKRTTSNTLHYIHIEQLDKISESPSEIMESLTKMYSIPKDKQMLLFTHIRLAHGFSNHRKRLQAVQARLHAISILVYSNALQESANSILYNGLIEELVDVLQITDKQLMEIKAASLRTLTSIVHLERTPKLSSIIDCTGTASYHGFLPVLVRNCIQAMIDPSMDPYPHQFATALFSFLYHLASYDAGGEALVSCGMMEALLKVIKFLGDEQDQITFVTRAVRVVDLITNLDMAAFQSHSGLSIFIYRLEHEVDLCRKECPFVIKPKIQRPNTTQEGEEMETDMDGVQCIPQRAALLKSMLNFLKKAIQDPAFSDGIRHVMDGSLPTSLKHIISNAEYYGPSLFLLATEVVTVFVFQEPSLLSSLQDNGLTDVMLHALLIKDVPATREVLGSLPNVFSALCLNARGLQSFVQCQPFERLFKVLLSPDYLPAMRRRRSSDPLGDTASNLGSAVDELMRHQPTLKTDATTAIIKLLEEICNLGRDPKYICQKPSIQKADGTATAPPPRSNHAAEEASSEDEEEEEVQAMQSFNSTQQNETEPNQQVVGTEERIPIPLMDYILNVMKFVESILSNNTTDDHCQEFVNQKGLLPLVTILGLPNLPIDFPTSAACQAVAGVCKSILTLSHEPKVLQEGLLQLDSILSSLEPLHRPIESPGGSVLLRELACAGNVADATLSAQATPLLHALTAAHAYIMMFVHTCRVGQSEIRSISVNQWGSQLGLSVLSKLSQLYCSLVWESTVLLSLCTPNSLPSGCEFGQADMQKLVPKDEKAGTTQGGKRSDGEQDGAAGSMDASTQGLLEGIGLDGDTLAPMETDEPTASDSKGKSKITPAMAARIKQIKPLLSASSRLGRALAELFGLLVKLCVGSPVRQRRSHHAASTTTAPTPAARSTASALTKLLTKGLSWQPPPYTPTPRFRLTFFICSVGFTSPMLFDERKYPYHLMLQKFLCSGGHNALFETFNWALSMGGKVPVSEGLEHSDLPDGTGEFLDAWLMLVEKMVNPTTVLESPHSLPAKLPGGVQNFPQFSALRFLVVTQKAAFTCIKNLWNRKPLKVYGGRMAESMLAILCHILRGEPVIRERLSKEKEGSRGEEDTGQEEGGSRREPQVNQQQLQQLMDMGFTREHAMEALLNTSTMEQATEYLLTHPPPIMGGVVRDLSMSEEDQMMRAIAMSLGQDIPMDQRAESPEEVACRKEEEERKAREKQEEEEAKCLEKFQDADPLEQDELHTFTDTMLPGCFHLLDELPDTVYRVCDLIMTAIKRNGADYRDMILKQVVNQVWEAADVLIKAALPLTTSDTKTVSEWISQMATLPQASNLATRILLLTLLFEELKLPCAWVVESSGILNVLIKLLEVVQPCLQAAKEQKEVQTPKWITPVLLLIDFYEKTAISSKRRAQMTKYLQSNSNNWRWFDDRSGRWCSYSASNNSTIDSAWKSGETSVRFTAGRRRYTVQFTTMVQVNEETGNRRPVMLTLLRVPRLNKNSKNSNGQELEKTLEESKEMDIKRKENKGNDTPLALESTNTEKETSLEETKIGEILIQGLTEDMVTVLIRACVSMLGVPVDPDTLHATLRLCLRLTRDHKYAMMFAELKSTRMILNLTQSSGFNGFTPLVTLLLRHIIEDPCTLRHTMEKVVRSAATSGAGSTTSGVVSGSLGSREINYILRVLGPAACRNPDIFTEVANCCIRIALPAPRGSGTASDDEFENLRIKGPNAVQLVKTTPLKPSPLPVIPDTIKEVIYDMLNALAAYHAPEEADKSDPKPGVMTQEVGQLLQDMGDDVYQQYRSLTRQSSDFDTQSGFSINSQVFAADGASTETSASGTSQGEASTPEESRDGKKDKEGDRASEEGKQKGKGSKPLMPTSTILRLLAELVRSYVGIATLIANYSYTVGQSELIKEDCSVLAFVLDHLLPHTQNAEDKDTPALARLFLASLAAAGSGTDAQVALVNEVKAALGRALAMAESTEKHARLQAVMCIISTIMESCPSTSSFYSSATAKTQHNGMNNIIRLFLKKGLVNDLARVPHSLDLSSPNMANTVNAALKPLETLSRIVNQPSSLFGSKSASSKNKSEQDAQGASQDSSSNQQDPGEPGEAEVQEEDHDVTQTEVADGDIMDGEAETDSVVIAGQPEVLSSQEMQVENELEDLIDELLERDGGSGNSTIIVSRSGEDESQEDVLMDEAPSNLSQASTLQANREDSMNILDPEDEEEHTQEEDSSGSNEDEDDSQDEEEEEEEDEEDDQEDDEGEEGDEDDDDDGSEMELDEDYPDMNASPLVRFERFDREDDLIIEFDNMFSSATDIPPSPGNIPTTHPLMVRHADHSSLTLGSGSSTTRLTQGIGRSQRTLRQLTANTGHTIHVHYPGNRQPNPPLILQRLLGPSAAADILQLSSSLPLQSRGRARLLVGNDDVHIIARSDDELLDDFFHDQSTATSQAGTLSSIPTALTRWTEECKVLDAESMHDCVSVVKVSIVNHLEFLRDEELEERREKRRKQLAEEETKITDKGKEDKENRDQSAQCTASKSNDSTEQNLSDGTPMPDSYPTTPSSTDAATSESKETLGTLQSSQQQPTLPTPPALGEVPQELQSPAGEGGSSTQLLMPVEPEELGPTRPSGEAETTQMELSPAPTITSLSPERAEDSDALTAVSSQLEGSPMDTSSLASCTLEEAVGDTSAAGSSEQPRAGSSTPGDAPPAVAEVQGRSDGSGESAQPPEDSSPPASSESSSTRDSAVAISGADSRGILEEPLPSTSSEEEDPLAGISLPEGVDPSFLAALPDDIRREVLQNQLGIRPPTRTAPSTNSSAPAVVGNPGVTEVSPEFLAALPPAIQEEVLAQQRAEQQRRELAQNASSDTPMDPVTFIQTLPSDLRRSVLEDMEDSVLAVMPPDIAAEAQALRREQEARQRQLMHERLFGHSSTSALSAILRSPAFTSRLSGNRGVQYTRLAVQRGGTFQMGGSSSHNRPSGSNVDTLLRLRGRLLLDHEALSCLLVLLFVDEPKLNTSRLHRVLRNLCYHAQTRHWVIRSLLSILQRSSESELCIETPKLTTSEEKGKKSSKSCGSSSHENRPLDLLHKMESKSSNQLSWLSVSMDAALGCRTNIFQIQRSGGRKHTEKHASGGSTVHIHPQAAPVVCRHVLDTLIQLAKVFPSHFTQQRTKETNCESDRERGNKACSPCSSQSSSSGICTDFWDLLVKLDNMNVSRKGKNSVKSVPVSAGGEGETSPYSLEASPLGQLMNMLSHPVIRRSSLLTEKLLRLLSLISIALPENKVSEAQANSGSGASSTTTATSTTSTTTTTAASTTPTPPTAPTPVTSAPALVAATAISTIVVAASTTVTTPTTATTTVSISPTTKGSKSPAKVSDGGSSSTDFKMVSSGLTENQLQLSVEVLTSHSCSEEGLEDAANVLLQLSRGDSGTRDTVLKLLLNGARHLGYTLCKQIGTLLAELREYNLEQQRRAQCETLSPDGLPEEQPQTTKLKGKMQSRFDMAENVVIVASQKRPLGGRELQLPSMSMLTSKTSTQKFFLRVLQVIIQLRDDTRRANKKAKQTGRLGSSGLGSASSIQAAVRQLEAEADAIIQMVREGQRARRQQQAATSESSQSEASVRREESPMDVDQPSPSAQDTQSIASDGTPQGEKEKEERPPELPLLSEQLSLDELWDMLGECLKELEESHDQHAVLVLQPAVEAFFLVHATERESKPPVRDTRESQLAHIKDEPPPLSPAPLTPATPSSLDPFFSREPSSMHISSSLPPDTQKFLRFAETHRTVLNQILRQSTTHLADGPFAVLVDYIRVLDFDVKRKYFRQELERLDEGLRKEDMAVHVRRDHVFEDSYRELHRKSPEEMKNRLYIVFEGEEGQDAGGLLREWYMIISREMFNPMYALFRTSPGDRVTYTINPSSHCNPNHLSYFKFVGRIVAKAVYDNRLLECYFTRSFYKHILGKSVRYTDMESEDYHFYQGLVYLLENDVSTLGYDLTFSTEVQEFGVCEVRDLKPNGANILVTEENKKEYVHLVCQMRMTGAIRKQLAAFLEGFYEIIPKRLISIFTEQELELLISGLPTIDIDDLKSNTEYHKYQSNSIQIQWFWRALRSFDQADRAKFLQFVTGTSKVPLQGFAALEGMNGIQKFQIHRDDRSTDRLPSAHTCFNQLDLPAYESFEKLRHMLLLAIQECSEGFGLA

These are yes or no findings as the source states them, for the method shown. For part of these data: In cells and extracts the contact can be indirect. Some binding calls cover weakened binding; strength is not graded here.

As for “BIRC6 (endogenous) (from UniProt Q9NR09 1-4857) (enzyme)”, the binding result in assay [1] is given as “binds”.
With “HUWE1 (endogenous) (from UniProt Q7Z6Z7 1-4374) (enzyme)”, the binding result in assay [1] is “binds”.
Regarding “purified human HUWE1 (recombinant) (from UniProt Q7Z6Z7 1-4374) (enzyme)”, in assay [2], the binding entry is “binds”.

Source of the values: paper doi:10.1101/2024.05.16.594269.
